About 10,000 (2.8%) of roughly 360,000 compounds were called active. This list was built around the results that the source calls inconclusive (neither active nor inactive); the mix of calls is not that of the screen. The call rests on the fitted dose curve; in most records, active means well fitted inhibition curve with a large enough effect; inconclusive means small, poorly fitted or top-dose-only effect; inactive means flat fitted curve, though single readings scatter. A potency beside an inconclusive call is a rough fit, not a confirmed value.
molecular target: Serine/threonine-protein kinase PLK1 (Homo sapiens) (UniProt P53350); assay: qHTS for Inhibitors of PLK1-PDB (polo-like kinase 1 - polo-box domain): Primary Screen; details: Plk1 PBD binding of FITC phosphopeptide, fluorescence polarization; further: nearly all actives have a fitted effect of over 65% in size; on max response, negative = inhibition: series mostly up to about 57 µM
On the % scale 0 is the no-effect control and ±100 the full control effect; potency means the concentration at half of the fitted maximal effect.

Protein sequences, listed by entry. Tags and fused reporters are not part of them.
UniProt P53350, whole entry, looked up: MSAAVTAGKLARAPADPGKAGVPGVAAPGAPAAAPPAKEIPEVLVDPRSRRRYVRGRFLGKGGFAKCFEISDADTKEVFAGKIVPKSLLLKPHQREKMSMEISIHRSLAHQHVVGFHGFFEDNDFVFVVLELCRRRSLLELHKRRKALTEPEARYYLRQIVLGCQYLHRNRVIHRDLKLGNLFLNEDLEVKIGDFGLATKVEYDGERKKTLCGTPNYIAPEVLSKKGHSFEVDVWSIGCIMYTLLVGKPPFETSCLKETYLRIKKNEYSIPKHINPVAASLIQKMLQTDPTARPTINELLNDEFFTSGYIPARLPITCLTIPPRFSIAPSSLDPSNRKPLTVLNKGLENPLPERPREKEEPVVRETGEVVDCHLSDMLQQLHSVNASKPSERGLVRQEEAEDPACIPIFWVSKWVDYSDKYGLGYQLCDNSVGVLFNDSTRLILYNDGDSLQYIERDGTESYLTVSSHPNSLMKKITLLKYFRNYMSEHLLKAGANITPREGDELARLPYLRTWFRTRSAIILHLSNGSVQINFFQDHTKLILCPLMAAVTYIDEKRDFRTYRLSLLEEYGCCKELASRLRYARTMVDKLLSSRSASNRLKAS

| SMILES | Potency | max response, negative = inhibition |
| --- | --- | --- |
| COc1ccc(C[C@@H]2CN3C(=NC[C@@H]3C)N2C[C@H](C)NC(=O)c2ccc(C)c(Br)c2)cc1 | inconclusive: 23.8 µM [inhibitor, single point] | – |
| Cc1cccc(NC(=O)CCN2CCN(C)CC2)c1 | inconclusive: 26.7 µM [inhibitor, single point] | – |
| O=C1C(Cc2ccc(O)cc2)NC(=S)N1Cc1ccccc1 (stereo not given) | inconclusive: 21.2 µM [inhibitor, partial curve] | – |
| CCc1c(C)c2cc(Cl)c(O)c(CN(C)C)c2oc1=O | – | inactive: -9.04% |
| COc1cc(/C=C/C(=O)O)cc(S(=O)(=O)Nc2cc(Cl)c(Cl)cc2Cl)c1OC | inconclusive: 37.7 µM [inhibitor, partial curve] | – |
| CCOc1ccccc1N(C)S(=O)(=O)c1ccc2c(c1)CC(C)N2C(=O)C1CC1 (stereo not given) | – | inactive: 0.956% |
| COc1ccc(CSc2ccc(S(=O)(=O)N3CCCCC3)cn2)cc1F | – | inactive: -5.09% |
| Clc1ccc(-c2noc(CN3CCCC3)n2)cc1 | inconclusive: 23.8 µM [inhibitor, partial curve] | – |
| Cc1ccc(NC(=O)CSc2nc3ncc(Cl)cc3[nH]2)c(C)c1 | – | inconclusive: -33.6% [inhibitor] |
| COc1cc(NC(=O)c2noc3c2CCC3)c(OC)cc1Cl | inconclusive: 26.7 µM [inhibitor, partial curve] | – |
| CC(=O)c1ccc(NC(=O)/C(=C\c2ccco2)NC(=O)c2ccco2)cc1 | – | inactive: -4.19% |
| Cc1ccn2c(=S)[nH]nc2c1 | – | inactive: -15.6% |
| CC1=NOC(=O)/C1=C\c1ccc(-c2ccc(Cl)cc2Cl)o1 | active: 0.423 µM | – |
| CC(=O)N1CC=C2C(C#N)=C(N)C(C#N)(C#N)C(CCc3ccccc3)C2C1 (stereo not given) | active: 26.7 µM | – |
| Cc1nc([N+](=O)[O-])c(Br)n1CC(=O)c1ccc(Cl)cc1 | inconclusive: 29.9 µM [inhibitor, partial curve] | – |
| O=C(CN1CC(=O)Oc2ccccc21)OCC(=O)c1ccc(F)cc1 | – | inactive: -14.3% |
| COCCN(CCOC)S(=O)(=O)c1ccc(C(=O)Nc2nnc(CSC)o2)cc1 | inconclusive: 23.8 µM [inhibitor, partial curve] | – |
| CCCCN(C(=O)CSc1nnc(Nc2ccccc2)s1)c1c(N)n(CCC)c(=O)[nH]c1=O | inconclusive: 33.6 µM [inhibitor, single point] | – |
| Cc1ccc(S(=O)(=O)N2CCOCC2)cc1NC(=O)COc1ncnc2ccccc12 | – | inconclusive: -30.4% [inhibitor] |
| COCc1cc(S(=O)c2ccc(Cl)cc2)nc(C)n1 (stereo not given) | active: 5.32 µM | – |
| O=C(CC(NS(=O)(=O)c1ccc(Cl)cc1)c1ccco1)NCc1ccco1 (stereo not given) | active: 29.9 µM | – |
| CCOC(=O)C(=Cc1ccccc1)C(=O)c1ccccc1 | – | inactive: -10.7% |
| O=C(Nc1cc(S(=O)(=O)N2CCOCC2)ccc1O)c1ccc2c(c1)S(=O)(=O)c1ccccc1C2=O | active: 10.6 µM | – |

| SMILES | Potency | max response, negative = inhibition |
| --- | --- | --- |
| c1ccc(CSc2n[nH]c(-c3ccco3)n2)cc1 | – | inactive: -9.74% |
| Cc1cc(S(=O)(=O)c2ccc([N+](=O)[O-])cn2)ccc1Br | inconclusive: 0.947 µM [inhibitor, full curve] | – |
| O=C(c1ccco1)N1CCN=C1SCc1ccccc1Cl | inconclusive: 13.4 µM [inhibitor, partial curve] | – |
| CCOC(=O)C1CCCN(C(=O)c2ccc3c(c2)OCO3)C1 (stereo not given) | – | inactive: -19.8% |
| CCN(CC)S(=O)(=O)c1cc(NS(=O)(=O)c2c(Cl)cccc2Cl)ccc1C | inconclusive: 23.8 µM [inhibitor, single point] | – |
| CC(C)(C)c1[nH]nc2c1C(Cc1ccccc1)C(C#N)=C(N)O2 (stereo not given) | inconclusive: 26.7 µM [inhibitor, partial curve] | – |
| COC(=O)c1ccccc1S(=O)(=O)C(C)(C)C | active: 23.8 µM | – |
| CCOC(=O)CC(NS(=O)(=O)c1ccc2[nH]cc(C(=O)O)c(=O)c2c1)c1ccc(OCC)c(OC)c1 (stereo not given) | inconclusive: 21.2 µM [inhibitor, partial curve] | – |
| O=[N+]([O-])c1ccc(N2CCN(S(=O)(=O)c3ccc(Cl)cc3)CC2)cc1NCc1cccnc1 | inconclusive: 26.7 µM [inhibitor, partial curve] | – |
| O=C(NNc1cc(N2CCCC2)nc(N2CCCC2)n1)c1ccc([N+](=O)[O-])cc1 | inconclusive: 21.2 µM [inhibitor, partial curve] | – |
| CCOC(=O)C1=C(Cc2ccc(Cl)cc2)C(=O)c2ccccc2C1=O | active: 4.74 µM | – |
| CCCCn1c(N)c(N(Cc2ccccc2OC)C(=O)CN2C(=O)NC(C)(c3ccccc3)C2=O)c(=O)[nH]c1=O (stereo not given) | – | inactive: -4.27% |
| CSc1n[nH]c2nc3c(c(=O)n12)C1(CCCC1)Cc1ccccc1-3 | inconclusive: 29.9 µM [inhibitor, partial curve] | – |
| CCC(c1nnnn1CCOC)N(Cc1cc2c(C)cc(C)cc2[nH]c1=O)CC1CCCO1 (stereo not given) | – | inactive: -10.4% |
| COc1ccc(CCN(C)C(=O)C2CCCN(C3CCN(Cc4ccccc4)CC3)C2)cc1OC (stereo not given) | – | inactive: -0.883% |
| COc1ccc(C(=O)c2sc3nc(C)cc(-c4cccs4)c3c2N)cc1 | inconclusive: 37.7 µM [inhibitor, single point] | – |
| Cc1cc(NC(=O)CSc2sc3c(O)cc(=O)[nH]c3c2C#N)ccc1Br | inconclusive: 26.7 µM [inhibitor, single point] | – |
| O=S(=O)(c1ccc(F)cc1)c1nc(-c2ccccc2F)oc1N1CCCCC1 | – | inactive: -10.1% |
| Nc1ncnc2c1ncn2[C@@H]1O[C@H](CNC(=O)[C@@H]2CCCN2S(=O)(=O)c2ccc(F)cc2)[C@@H](O)[C@H]1O | inconclusive: 29.9 µM [inhibitor, single point] | – |
| COc1cccc(NC(=O)c2cnn(-c3ccccc3)c2C)c1 | – | inactive: -0.632% |
| Cc1cc(C)n(-c2nc3c(c(=O)[nH]c(=O)n3C)n2CC(O)COc2ccccc2C)n1 (stereo not given) | – | inactive: -3.58% |
| O=C(CSc1ncnc2ccccc12)c1ccco1 | inconclusive: 18.9 µM [inhibitor, partial curve] | – |

Part of the list above, with bars between the fields:
SMILES | Potency | max response, negative = inhibition
O=C(NNc1cc(N2CCCC2)nc(N2CCCC2)n1)c1ccc([N+](=O)[O-])cc1 | inconclusive: 21.2 µM [inhibitor, partial curve] | –
CCOC(=O)C1=C(Cc2ccc(Cl)cc2)C(=O)c2ccccc2C1=O | active: 4.74 µM | –
CCCCn1c(N)c(N(Cc2ccccc2OC)C(=O)CN2C(=O)NC(C)(c3ccccc3)C2=O)c(=O)[nH]c1=O (stereo not given) | – | inactive: -4.27%

Source: PubChem BioAssay AID720504 (National Center for Advancing Translational Sciences (NCATS), 2013)
